Measurements reported in paper doi:10.1101/2025.10.10.681325.
No constants are given. Whether binding was seen depends on the method and setting. Some binding calls cover weakened binding; strength is not graded here.

Target: VapB12 antitoxin (Rv1721c), recombinant, as crystallised (M. tuberculosis) (UniProt P9WJ53)
Experiment: crystal structure

**Q.** How did the binding turn out when “VapB12 antitoxin (Rv1721c), recombinant, as crystallised (from UniProt P9WJ53 1-75)” was run?
**A.** binds
